The experiment has as its target T1, SpoIID (Clostridium difficile) (UniProt Q18CL6).
T1 sequence: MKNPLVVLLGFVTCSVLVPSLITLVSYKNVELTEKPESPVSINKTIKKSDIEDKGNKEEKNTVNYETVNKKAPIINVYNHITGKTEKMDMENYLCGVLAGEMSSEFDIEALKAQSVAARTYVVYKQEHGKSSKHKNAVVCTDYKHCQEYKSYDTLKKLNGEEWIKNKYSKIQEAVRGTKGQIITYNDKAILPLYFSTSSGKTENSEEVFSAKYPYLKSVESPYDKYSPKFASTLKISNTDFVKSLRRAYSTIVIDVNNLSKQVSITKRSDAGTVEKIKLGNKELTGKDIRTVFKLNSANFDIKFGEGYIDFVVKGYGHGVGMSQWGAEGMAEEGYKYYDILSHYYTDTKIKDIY
The experiment in a line: condition: only SpoIIIAH fused to T18 and SpoIID fused to T25 (the reverse orientation); two-hybrid; BACTH in E. coli BTH101 (cya); full length proteins fused to the C-terminus of T18 (pUT18C) or T25 (pKT25) of CyaA; blue colonies on X-Gal/IPTG plates, 30°C, 24 h, and β-galactosidase activity of liquid cultures in Miller units; biological duplicate.

The results in this text go back to article PMC6221140.

Results are given in words; binding and its absence hold for the method and conditions named.

With SpoIIIAH (Clostridium difficile), the binding entry is “no binding”.
